{"source": "PubChem BioAssay AID1259327 (Drosophila RNAi Screening Center, 2017)", "test": "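Data from controls in screens of zinc and manganese toxicity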", "cell system": "Drosophila S2R+ cells", "knock-down reagent": "long dsRNA against Drosophila genes", "time to read-out": "5 days (water added on day 4, read one day later)", "conditions": "water added as vehicle, no metal, one day before read-out", "read-out": "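Luciferase ATP signal per well, normalised to plate mean, duplicate average converted to z-score across plates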", "reading the numbers": "ATP z-score: higher = more total ATP than typical wells; ATP luminescence: higher = more total ATP", "active means": "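Called active when the ATP z-score exceeds 1.5 or falls below -1.5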", "meaning of the calls": "active = hit: ATP up or down; inactive = no clear ATP change", "note": "This is a random part of about 3,100 reagents tested. 378 of them (12%) count as active. 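Hits include both directions; z-score sign shows ATP rise or fall; raw luminescence values are not plate-normalised.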 Not stated in the record: the amount of reagent."}
{"gene": "Nrx-1", "dsRNA": "DRSC16184", "ATP z-score, duplicate mean": 0.411, "ATP luminescence, replicate 1 (RLU)": 7.44e5, "ATP luminescence, replicate 2 (RLU)": 7.52e5, "Outcome": "inactive"}
{"gene": "mth", "dsRNA": "DRSC08725", "ATP z-score, duplicate mean": 0.14, "ATP luminescence, replicate 1 (RLU)": 8.49e5, "ATP luminescence, replicate 2 (RLU)": 6.40e5, "Outcome": "inactive"}
{"gene": "mth", "dsRNA": "DRSC39165", "ATP z-score, duplicate mean": 0.907, "ATP luminescence, replicate 1 (RLU)": 5.91e5, "ATP luminescence, replicate 2 (RLU)": 7.23e5, "Outcome": "inactive"}
{"gene": "CG2121", "dsRNA": "DRSC06819", "ATP z-score, duplicate mean": 0.426, "ATP luminescence, replicate 1 (RLU)": 7.51e5, "ATP luminescence, replicate 2 (RLU)": 8.03e5, "Outcome": "inactive"}
{"gene": "CG2121", "dsRNA": "DRSC06820", "ATP z-score, duplicate mean": -1.19, "ATP luminescence, replicate 1 (RLU)": 4.93e5, "ATP luminescence, replicate 2 (RLU)": 5.30e5, "Outcome": "inactive"}
{"gene": "Or92a", "dsRNA": "DRSC16771", "ATP z-score, duplicate mean": 0.247, "ATP luminescence, replicate 1 (RLU)": 2.53e5, "ATP luminescence, replicate 2 (RLU)": 9.36e5, "Outcome": "inactive"}
{"gene": "otk2", "dsRNA": "DRSC07303", "ATP z-score, duplicate mean": -0.0623, "ATP luminescence, replicate 1 (RLU)": 5.48e5, "ATP luminescence, replicate 2 (RLU)": 6.80e5, "Outcome": "inactive"}
{"gene": "Tsp66E", "dsRNA": "DRSC09683", "ATP z-score, duplicate mean": -0.116, "ATP luminescence, replicate 1 (RLU)": 9.00e5, "ATP luminescence, replicate 2 (RLU)": 8.62e5, "Outcome": "inactive"}
{"gene": "Or85a", "dsRNA": "DRSC16764", "ATP z-score, duplicate mean": 0.383, "ATP luminescence, replicate 1 (RLU)": 3.22e5, "ATP luminescence, replicate 2 (RLU)": 7.90e5, "Outcome": "inactive"}
{"gene": "CG13248", "dsRNA": "DRSC11696", "ATP z-score, duplicate mean": -0.159, "ATP luminescence, replicate 1 (RLU)": 8.87e5, "ATP luminescence, replicate 2 (RLU)": 8.63e5, "Outcome": "inactive"}
{"gene": "CG13248", "dsRNA": "DRSC24446", "ATP z-score, duplicate mean": -0.732, "ATP luminescence, replicate 1 (RLU)": 9.00e5, "ATP luminescence, replicate 2 (RLU)": 7.85e5, "Outcome": "inactive"}
{"gene": "mah", "dsRNA": "DRSC14645", "ATP z-score, duplicate mean": -0.675, "ATP luminescence, replicate 1 (RLU)": 2.71e5, "ATP luminescence, replicate 2 (RLU)": 6.84e5, "Outcome": "inactive"}
{"gene": "mah", "dsRNA": "DRSC28300", "ATP z-score, duplicate mean": 0.422, "ATP luminescence, replicate 1 (RLU)": 8.74e5, "ATP luminescence, replicate 2 (RLU)": 8.72e5, "Outcome": "inactive"}
{"gene": "CG14971", "dsRNA": "DRSC08430", "ATP z-score, duplicate mean": -1.78, "ATP luminescence, replicate 1 (RLU)": 5.20e5, "ATP luminescence, replicate 2 (RLU)": 5.62e5, "Outcome": "active"}
{"gene": "mthl3", "dsRNA": "DRSC06997", "ATP z-score, duplicate mean": 1.01, "ATP luminescence, replicate 1 (RLU)": 8.02e5, "ATP luminescence, replicate 2 (RLU)": 8.77e5, "Outcome": "inactive"}
{"gene": "mthl3", "dsRNA": "DRSC24927", "ATP z-score, duplicate mean": -1.11, "ATP luminescence, replicate 1 (RLU)": 6.61e5, "ATP luminescence, replicate 2 (RLU)": 7.63e5, "Outcome": "inactive"}
{"gene": "nrv2", "dsRNA": "DRSC00948", "ATP z-score, duplicate mean": -0.503, "ATP luminescence, replicate 1 (RLU)": 6.62e5, "ATP luminescence, replicate 2 (RLU)": 7.15e5, "Outcome": "inactive"}
{"gene": "nrv2", "dsRNA": "DRSC03383", "ATP z-score, duplicate mean": -0.169, "ATP luminescence, replicate 1 (RLU)": 4.44e5, "ATP luminescence, replicate 2 (RLU)": 4.92e5, "Outcome": "inactive"}
{"gene": "CG34433", "dsRNA": "DRSC15077", "ATP z-score, duplicate mean": -1.1, "ATP luminescence, replicate 1 (RLU)": 5.66e5, "ATP luminescence, replicate 2 (RLU)": 7.62e5, "Outcome": "inactive"}
{"gene": "Sh", "dsRNA": "DRSC19785", "ATP z-score, duplicate mean": -0.619, "ATP luminescence, replicate 1 (RLU)": 6.69e5, "ATP luminescence, replicate 2 (RLU)": 6.82e5, "Outcome": "inactive"}
{"gene": "Sh", "dsRNA": "DRSC20055", "ATP z-score, duplicate mean": -0.483, "ATP luminescence, replicate 1 (RLU)": 7.11e5, "ATP luminescence, replicate 2 (RLU)": 6.47e5, "Outcome": "inactive"}
{"gene": "Sh", "dsRNA": "DRSC25790", "ATP z-score, duplicate mean": -0.373, "ATP luminescence, replicate 1 (RLU)": 8.16e5, "ATP luminescence, replicate 2 (RLU)": 7.91e5, "Outcome": "inactive"}
{"gene": "Gr58b", "dsRNA": "DRSC04140", "ATP z-score, duplicate mean": 0.021, "ATP luminescence, replicate 1 (RLU)": 6.72e5, "ATP luminescence, replicate 2 (RLU)": 7.83e5, "Outcome": "inactive"}
{"gene": "Gr58b", "dsRNA": "DRSC39737", "ATP z-score, duplicate mean": 1.11, "ATP luminescence, replicate 1 (RLU)": 5.03e5, "ATP luminescence, replicate 2 (RLU)": 5.80e5, "Outcome": "inactive"}

A few values from the list.
mah [DRSC14645], ATP luminescence, replicate 1 (RLU) = 2.71e5
Entry of CG14971 [DRSC08430] in “ATP luminescence, replicate 2 (RLU)”: 5.62e5
Entry for Gr58b [DRSC39737] under “ATP luminescence, replicate 1 (RLU)”: 5.03e5
